Source: article PMC6238414
No constants are given. Whether binding was seen depends on the method and setting. In cells and extracts the contact can be indirect. For some of these results: Binding calls can cover weak binding; strength is not graded here. Tags and fused reporters may be left off the sequences shown.

Legend:
Experiment in all cases: co-IP; COS7 cells transiently co-transfected with FLAG-SYCE2 forms and HA-HP1α forms; 500 μg lysate precipitated with anti-FLAG or normal IgG, blotted with anti-HA or anti-FLAG
[1] = biological target: T1, FLAG-tagged deletion mutant of SYCE2 lacking only the PHVKC motif (human) (UniProt Q6PIF2)
T1 sequence: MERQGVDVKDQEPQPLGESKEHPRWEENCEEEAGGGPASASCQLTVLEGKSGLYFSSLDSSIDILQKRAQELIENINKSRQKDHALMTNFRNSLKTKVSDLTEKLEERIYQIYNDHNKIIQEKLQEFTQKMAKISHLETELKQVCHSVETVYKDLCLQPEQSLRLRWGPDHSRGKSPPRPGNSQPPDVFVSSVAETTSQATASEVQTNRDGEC

[2] = biological target: T2, FLAG-tagged SYCE2-aa 88–218 mutant (human) (UniProt Q6PIF2)
T2 sequence: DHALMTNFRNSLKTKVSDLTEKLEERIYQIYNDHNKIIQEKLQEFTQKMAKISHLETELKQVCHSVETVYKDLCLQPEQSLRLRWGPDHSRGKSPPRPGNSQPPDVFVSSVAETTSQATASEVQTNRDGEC

[3] = biological target: T3, full-length FLAG-SYCE2, transiently expressed in COS7 cells (human) (UniProt Q6PIF2)
T3 sequence: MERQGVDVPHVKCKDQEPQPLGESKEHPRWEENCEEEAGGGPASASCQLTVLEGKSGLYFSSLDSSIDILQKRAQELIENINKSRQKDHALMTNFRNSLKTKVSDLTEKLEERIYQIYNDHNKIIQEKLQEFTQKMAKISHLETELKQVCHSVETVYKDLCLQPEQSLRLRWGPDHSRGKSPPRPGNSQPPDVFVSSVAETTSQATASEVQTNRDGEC

[4] = biological target: T4, FLAG-tagged SYCE2-aa 1–88 mutant (human) (UniProt Q6PIF2)
T4 sequence: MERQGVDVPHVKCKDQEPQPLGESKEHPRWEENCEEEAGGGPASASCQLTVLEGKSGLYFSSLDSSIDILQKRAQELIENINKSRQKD

[5] = biological target: T5, FLAG-tagged SYCE2-aa 57–218 mutant (human) (UniProt Q6PIF2)
T5 sequence: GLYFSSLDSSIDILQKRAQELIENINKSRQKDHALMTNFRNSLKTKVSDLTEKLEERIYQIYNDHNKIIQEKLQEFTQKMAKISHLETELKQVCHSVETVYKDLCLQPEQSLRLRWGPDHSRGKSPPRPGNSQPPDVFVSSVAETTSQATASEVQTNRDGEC

binding [1] | binding [2] | binding [3] | binding [4] | binding [5] | Substance
binds | no binding | binds | binds | no binding | HA-tagged deletion mutant of HP1α containing only the chromoshadow domain (human (cDNA of MCF7 cells)) (domain or fragment)
– | – | no binding | – | – | HA-tagged deletion mutant of HP1α lacking the chromoshadow domain (human (cDNA of MCF7 cells)) (domain or fragment)
– | – | binds | – | – | HA-tagged deletion mutant of HP1α lacking the chromodomain (human (cDNA of MCF7 cells)) (domain or fragment)
